# Measurements as given in article PMC6503954.
# Biological target: T1, GFP-tagged aPKCι (UniProt P41743)
# T1 sequence: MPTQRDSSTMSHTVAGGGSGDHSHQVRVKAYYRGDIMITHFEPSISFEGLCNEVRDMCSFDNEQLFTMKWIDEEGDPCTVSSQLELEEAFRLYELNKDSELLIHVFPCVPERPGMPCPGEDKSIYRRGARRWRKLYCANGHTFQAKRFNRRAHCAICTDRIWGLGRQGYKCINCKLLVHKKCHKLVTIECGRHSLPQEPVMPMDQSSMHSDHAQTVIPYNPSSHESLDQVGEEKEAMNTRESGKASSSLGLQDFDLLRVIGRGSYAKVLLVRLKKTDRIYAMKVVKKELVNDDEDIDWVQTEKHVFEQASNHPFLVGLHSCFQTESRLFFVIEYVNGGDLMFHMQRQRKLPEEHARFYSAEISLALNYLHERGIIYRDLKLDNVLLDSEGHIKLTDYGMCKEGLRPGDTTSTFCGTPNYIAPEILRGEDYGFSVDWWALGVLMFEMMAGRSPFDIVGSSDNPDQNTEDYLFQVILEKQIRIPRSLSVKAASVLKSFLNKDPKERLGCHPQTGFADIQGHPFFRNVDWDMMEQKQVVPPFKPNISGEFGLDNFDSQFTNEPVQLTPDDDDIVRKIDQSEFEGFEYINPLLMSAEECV
# Test: co-IP; HCT116 cells co-transfected; GFP-Trap-M or FLAG-M2 beads, 4°C, 90 min; lysis buffer 20 mM Tris-HCl pH 8, 130 mM NaCl, 1% Triton X-100, 1 mM DTT, 10 mM NaF; some samples with the aPKCι inhibitor CRT0066854
substance,measurement,value
FARP2 FERM-FA domain (in pCMV6-Entry) (human) (domain or fragment),binding,binds

# Results are given in words; binding and its absence hold for the method and conditions named. Binding seen in cells or lysates may run through a third protein. A result given as binding can be weak or reduced; the word gives no strength. Tags and fused reporters may be left off the sequences shown.
